Reference: publication PMC10517141
No constants are given. Whether binding was seen depends on the method and setting. Binding seen in cells or lysates may run through a third protein. Some entries that bind do so weakly or less than the wild type. Each block holds one molecule with its values, some of them ahead of it.

Amino acid sequences for entries named in this document (tags omitted).
UniProt Q07820: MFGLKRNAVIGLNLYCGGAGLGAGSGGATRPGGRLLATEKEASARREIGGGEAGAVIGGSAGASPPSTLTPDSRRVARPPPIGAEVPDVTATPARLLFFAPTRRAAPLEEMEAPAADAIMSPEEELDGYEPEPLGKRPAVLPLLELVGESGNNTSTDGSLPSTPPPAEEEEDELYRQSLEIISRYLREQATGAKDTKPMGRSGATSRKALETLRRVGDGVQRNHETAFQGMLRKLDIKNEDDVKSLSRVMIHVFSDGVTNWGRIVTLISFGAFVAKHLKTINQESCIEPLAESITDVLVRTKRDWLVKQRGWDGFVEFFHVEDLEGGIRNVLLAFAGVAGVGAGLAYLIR

How the values were obtained:
[1] = target: T1, IRG1 overexpressed in HHL-5 cells (UniProt A6NK06); test: co-IP; endogenous MCL-1 and Bim from lysates of BNL CL.2 and HHL-5 hepatocyte cell lines transfected with control vector or IRG1 overexpression plasmid
T1 sequence: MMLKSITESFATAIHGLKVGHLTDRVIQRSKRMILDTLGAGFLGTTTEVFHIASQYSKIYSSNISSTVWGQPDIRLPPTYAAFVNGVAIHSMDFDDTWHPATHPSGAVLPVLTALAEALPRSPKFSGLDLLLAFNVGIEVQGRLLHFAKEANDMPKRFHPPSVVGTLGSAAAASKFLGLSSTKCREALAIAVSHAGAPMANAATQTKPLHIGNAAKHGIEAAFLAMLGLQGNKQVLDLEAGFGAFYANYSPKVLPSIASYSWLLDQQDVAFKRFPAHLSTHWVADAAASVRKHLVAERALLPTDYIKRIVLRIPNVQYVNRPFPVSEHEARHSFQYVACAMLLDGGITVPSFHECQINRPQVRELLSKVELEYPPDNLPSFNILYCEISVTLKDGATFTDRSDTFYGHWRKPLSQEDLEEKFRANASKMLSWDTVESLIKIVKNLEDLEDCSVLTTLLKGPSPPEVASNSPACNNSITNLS

[2] = target: T2, IRG1 overexpressed in BNL CL.2 cells (UniProt P54987); test: as above
T2 sequence: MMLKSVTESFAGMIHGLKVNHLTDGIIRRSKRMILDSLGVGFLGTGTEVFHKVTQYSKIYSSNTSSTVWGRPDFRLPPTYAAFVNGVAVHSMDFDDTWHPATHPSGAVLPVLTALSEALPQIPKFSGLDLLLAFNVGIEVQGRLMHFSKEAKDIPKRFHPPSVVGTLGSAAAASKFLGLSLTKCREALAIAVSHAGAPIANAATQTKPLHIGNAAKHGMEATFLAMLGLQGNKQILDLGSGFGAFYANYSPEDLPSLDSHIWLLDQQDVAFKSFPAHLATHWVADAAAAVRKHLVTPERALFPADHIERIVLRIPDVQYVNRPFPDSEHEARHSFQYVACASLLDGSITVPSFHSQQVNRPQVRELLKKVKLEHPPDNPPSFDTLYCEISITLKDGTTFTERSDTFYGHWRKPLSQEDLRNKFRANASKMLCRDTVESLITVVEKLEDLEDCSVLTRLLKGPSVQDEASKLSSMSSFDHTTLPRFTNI

[3] = target: T3, Immunoresponsive gene 1 (IRG1), endogenous in mouse liver (mouse (endogenous in liver)) (UniProt P54987); test: co-IP; endogenous proteins from liver lysates of eight-week-old male mice (also Irg1 f/f and Irg1 hep-/-) injected with DEN or APAP; cell lysis buffer with protease inhibitor cocktail
T3 sequence: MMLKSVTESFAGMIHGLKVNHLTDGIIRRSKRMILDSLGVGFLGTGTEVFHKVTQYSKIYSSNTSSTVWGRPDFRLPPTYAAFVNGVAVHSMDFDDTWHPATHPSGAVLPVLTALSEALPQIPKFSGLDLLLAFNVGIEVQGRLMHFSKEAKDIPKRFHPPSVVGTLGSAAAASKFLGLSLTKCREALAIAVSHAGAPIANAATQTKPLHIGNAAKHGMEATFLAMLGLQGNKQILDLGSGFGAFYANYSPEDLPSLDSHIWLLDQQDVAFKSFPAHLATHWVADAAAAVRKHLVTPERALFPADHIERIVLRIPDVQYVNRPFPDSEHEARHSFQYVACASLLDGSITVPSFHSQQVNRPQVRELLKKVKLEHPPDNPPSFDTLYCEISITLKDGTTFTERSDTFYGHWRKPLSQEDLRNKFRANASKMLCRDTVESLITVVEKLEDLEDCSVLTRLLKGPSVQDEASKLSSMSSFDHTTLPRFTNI

[4] = target: T4, MCL-1, endogenous mouse protein (mouse (endogenous in liver and in BNL CL.2)), P97287; test: co-IP; endogenous MCL-1 and Bim from lysates of BNL CL.2 and HHL-5 hepatocyte cell lines transfected with control vector or IRG1 overexpression plasmid; conditions: remark: other sources report otherwise
T4 chain: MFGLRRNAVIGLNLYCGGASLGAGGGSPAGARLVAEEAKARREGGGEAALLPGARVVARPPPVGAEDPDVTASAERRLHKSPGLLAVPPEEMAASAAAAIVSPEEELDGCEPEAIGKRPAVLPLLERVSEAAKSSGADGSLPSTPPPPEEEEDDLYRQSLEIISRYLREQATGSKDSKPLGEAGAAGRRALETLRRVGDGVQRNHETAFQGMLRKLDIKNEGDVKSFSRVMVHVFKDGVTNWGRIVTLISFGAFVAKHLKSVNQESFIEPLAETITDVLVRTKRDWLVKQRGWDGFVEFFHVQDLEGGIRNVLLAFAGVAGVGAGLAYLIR

[5] = target: T4, MCL-1, endogenous mouse protein (mouse …); test: co-IP; endogenous proteins from liver lysates of eight-week-old male mice (also Irg1 f/f and Irg1 hep-/-) injected with DEN or APAP; cell lysis buffer with protease inhibitor cocktail; conditions: remark: other sources report otherwise

binding [1]: binds
Molecule: MCL-1, endogenous in HHL-5 cells (from UniProt Q07820 1-350)

binding [2]: binds | binding [3]: binds
Molecule: MCL-1, endogenous mouse protein (from UniProt P97287 1-331)

binding [4]: binds | binding [5]: binds
B1: Bim (the longest Bim), endogenous mouse protein, O54918 1-196 (protein)
chain: MAKQPSDVSSECDREGGQLQPAERPPQLRPGAPTSLQTEPQGNPDGEGDRCPHGSPQGPLAPPASPGPFATRSPLFIFVRRSSLLSRSSSGYFSFDTDRSPAPMSCDKSTQTPSPPCQAFNHYLSAMASIRQSQEEPEDLRPEIRIAQELRRIGDEFNETYTRRVFANDYREAEDHPQMVILQLLRFIFRLVWRRH
